Values from PubChem BioAssay AID686943 (Drosophila RNAi Screening Center, 2013).
Screen: 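Search across the genome for regulators of signalling from receptor tyrosine kinase to ERK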 (primary screen). Cell system: Drosophila S2R+ haemocyte-like cells expressing YFP-tagged ERK (Rolled). Reagent: long dsRNA against Drosophila genes. Conditions: insulin stimulation versus unstimulated cells; dose and duration not given. Measurement: 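Antibody staining for doubly phosphorylated ERK divided by ERK-YFP signal, as plate z-scores, in insulin-treated and untreated cells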. Scale: replicate 1, z-score of dpERK with insulin and replicate 2, z-score of dpERK with insulin: higher = more active ERK per ERK-YFP after insulin; replicate 1, z-score of dpERK under basal conditions: higher = more basal active ERK per ERK-YFP.
The deposit covers about 23,000 reagents; shown is a random part of those that have a named target and a result. 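Extra replicates exist only for a retested subset of genes; insulin dose and duration not given; both raised and lowered dpERK matter.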 The numbers tell different reagents against one gene apart. Names joined by + are all predicted targets of the reagent. Further read-outs or replicates are left out here. Not given: the amount of reagent, the time to read-out.

target | reagent | replicate 1, z-score of dpERK with insulin | replicate 2, z-score of dpERK with insulin | replicate 1, z-score of dpERK under basal conditions
beat-Ia (GeneID 34947) | 1 | -0.14 | -0.28 | -0.55
CG12983 (GeneID 40319) | 1 | 0.3 | 0.05 | -0.46
beta4GalT7 (GeneID 42991) | 1 | -0.77 | 0 | -0.47
CG31323 (GeneID 318682) | 1 | 0.41 | -0.21 | -0.59
EbpIII (GeneID 49821) | 1 | -0.79 | -1.94 | -0.55
CG1907 (GeneID 43483) | 1 | 0.27 | 0.01 | -0.31
CG13033 (GeneID 39839) | 1 | 0.09 | 0.91 | 0.38
CG8230 (GeneID 35897) | 1 | -0.63 | -0.19 | 0.47
CG12643 (GeneID 50416) | 1 | 0.16 | 0.1 | -0.15
Atg6 (GeneID 42850) | 1 | -0.52 | -0.31 | -0.01
rad50 (GeneID 37564) | 1 | 0.38 | 0.26 | -0.16
gkt + CR31953 | 1 | 0.22 | -0.31 | 0.02
CG31415 (GeneID 318722) | 1 | 1.36 | 0.29 | -0.15
GluClalpha (GeneID 42350) | 1 | 0.52 | -0.2 | 0.52
CG12402 (GeneID 41714) | 1 | 0.38 | 0.42 | 0.49
CG4968 (GeneID 34384) | 1 | -0.36 | 0.65 | -0.9
hh (GeneID 42737) | 1 | 2.38 | 0.02 | 0.1
CG9380 (GeneID 38011) | 1 | 0.75 | -0.24 | -0.77
Menl-2 + Menl-1 | 1 | 1.36 | 0.35 | 1.03
Menl-2 + Menl-1 | 2 | 0.94 | 0.06 | 3.04
Vsx2 (GeneID 31469) | 1 | -0.8 | -2.19 | -2.47
Vsx2 (GeneID 31469) | 2 | -1.38 | -2.19 | -0.88
Vsx2 (GeneID 31469) | 3 | 0.12 | 0.21 | -0.7
Vsx2 (GeneID 31469) | 4 | -4.02 | 0.84 | 0.79
cu (GeneID 41339) | 1 | 0.06 | -0.31 | 0.44
cu (GeneID 41339) | 2 | 0.55 | 0.88 | 0.11
CG7945 (GeneID 39679) | 1 | -0.32 | 0.18 | 0.05
CG5043 (GeneID 35046) | 1 | 0.04 | 0.42 | -0.58

A stretch from the list above, as a working copy:
target | reagent | replicate 1, z-score of dpERK with insulin | replicate 2, z-score of dpERK with insulin | replicate 1, z-score of dpERK under basal conditions
Vsx2 (GeneID 31469) | 1 | -0.8 | -2.19 | -2.47
Vsx2 (GeneID 31469) | 2 | -1.38 | -2.19 | -0.88
Vsx2 (GeneID 31469) | 3 | 0.12 | 0.21 | -0.7
Vsx2 (GeneID 31469) | 4 | -4.02 | 0.84 | 0.79

The list goes on:
target | reagent | replicate 1, z-score of dpERK with insulin | replicate 2, z-score of dpERK with insulin | replicate 1, z-score of dpERK under basal conditions
CG33752 (GeneID 3771860) | 1 | 0.16 | 0.07 | -0.46
CG11634 (GeneID 35434) | 1 | 0.39 | 0.48 | 0.85
CheB98a (GeneID 50092) | 1 | 0.77 | 0.01 | 0.19
crp (GeneID 34956) | 1 | 7.85 | 6.26 | -1.48
CG7565 (GeneID 38893) | 1 | 0.06 | -0.06 | -0.1
CG17237 (GeneID 33411) | 1 | -0.29 | 0.51 | 0.85
MtnC (GeneID 42416) | 1 | 0.29 | 1.48 | 0.01
Prim2 (GeneID 44915) | 1 | -1.63 | -0.64 | 1.37
CG31642 (GeneID 326149) | 1 | 0.55 | 0.59 | 0.33
CG15760 (GeneID 32324) | 1 | 0.81 | 1.83 | 2.34
CG3631 (GeneID 41797) | 1 | -0.18 | 0.21 | 0.17
Arfrp1 (GeneID 31841) | 1 | 0.34 | -0.55 | 0.15
Lipt2 (GeneID 40565) | 1 | -0.09 | 1.22 | -0.13
Lipt2 (GeneID 40565) | 2 | -0.27 | 0.32 | 0.21
CG12693 (GeneID 31375) | 1 | 0.53 | 0.13 | 0.48
CG31178 (GeneID 42575) | 1 | 0.6 | -0.67 | -0.27
SPH93 (GeneID 35049) | 1 | 0.26 | -0.01 | 0.8
CG10055 (GeneID 40862) | 1 | -0.01 | -1.44 | -0.27
CG43077 (GeneID 12797990) | 1 | -1.35 | -0.88 | -0.21
PRL-1 (GeneID 34952) | 1 | -0.11 | 0.58 | 1.86
sub (GeneID 44870) | 1 | 0.22 | 0.35 | -0.09
Atg7 (GeneID 37141) | 1 | -1.34 | -2.04 | -3.35
Atg7 (GeneID 37141) | 2 | -0.26 | -0.53 | -0.77
CG12104 (GeneID 38187) | 1 | 0.37 | 0.3 | -2.59
Tnpo-SR (GeneID 33465) | 1 | -0.3 | -0.57 | 0.77
CG12499 (GeneID 42637) | 1 | -2.11 | -0.38 | -0.38
aph-1 (GeneID 33467) | 1 | -1.03 | -0.33 | -0.1
bwa (GeneID 250736) | 1 | -1.04 | -0.81 | -1.63
bwa (GeneID 250736) | 2 | 0.5 | 0.47 | -1.2
Spn42Dd (GeneID 49808) | 1 | 0.95 | 1.27 | 2.93
Spn42Dd (GeneID 49808) | 2 | 0.6 | 0.78 | 0.97
CG3841 (GeneID 34278) | 1 | 0.37 | -0.13 | 0.69
pyd (GeneID 41062) | 1 | 1.59 | 0.02 | 1.09
pyd (GeneID 41062) | 2 | 0.71 | 0.08 | 0.05
pyd (GeneID 41062) | 3 | -0.4 | 0.26 | 0.06
pyd (GeneID 41062) | 4 | 0.14 | 0.23 | -0.44
pyd (GeneID 41062) | 5 | -0.4 | 0.06 | -0.36
pyd (GeneID 41062) | 6 | -0.03 | 0.24 | -0.53
pyd (GeneID 41062) | 7 | 0.43 | -0.06 | 0.87
pyd (GeneID 41062) | 8 | -0.31 | -0.44 | -0.16
Bet3 (GeneID 39090) | 1 | 0.41 | 0.16 | 0.82
CG3611 (GeneID 37972) | 1 | -1.64 | -0.42 | 0.31
M6 (GeneID 40383) | 1 | 1.77 | 0.15 | 0.23
CG18508 (GeneID 59253) | 1 | 0.94 | 0.9 | 0.76
Gli (GeneID 34927) | 1 | -0.18 | 0.89 | -0.51
